# No constants are given. Whether binding was seen depends on the method and setting. Binding can be weak; no strength is given.
# B1: Clone 41, antibody in the IgG form (protein level) (antibody, V domains shown)
# VH: EVQLLESGGGLVQPGGSLRLSCAASGFSFSGYIMGWVRQAPGKGLEWVSSTSSSGTETYYADSVKGRFTISRDNSKNTLYLQMNSLRAEDTAVYYCARYYSKYGRSYHVDSWGQGTLVTVSS
# B2: Clone 39, antibody in the IgG form (protein level) (antibody, V domains shown)
# VH: EVQLLESGGGLVQPGGSLRLSCAASGFIFSSYGMGWVRQAPGKGLEWVSSISSSGDYTYYADSVKGRFTISRDNSKNTLYLQMNSLRAEDTAVYYCARMSFRRYDHWGQGTLVTVSS
# B3: Clone 18, antibody in the IgG form (protein level) (antibody, V domains shown)
# VH: QVQLQQWGAGLLKPSETLSLTCAVYGGSFSGYYWSWIRQPPGKGLEWIGEINHSGSTNYNPSLKSRVTISVDTSKNQFSLKLSSVTAADTAVYYCARARRYGGRTRFDPWGQGTLVTVSS
# Target: monkey-derived GPRC5D overexpressed on CHOS cells (CHOS-macaqueGPRC5D) (macaque (monkey-derived))
# Experiment: FACS titration on CHOS-macaque-GPRC5D cells (upper graph)
row,binding,Binder
1,binds,B1
2,binds,B2
3,binds,B3

# Target: monkey-derived GPRC5D overexpressed on CHOS cells (CHOS-macaqueGPRC5D) (macaque (monkey-derived))
# Experiment: FACS on CHOS-macaqueGPRC5D cells
row,binding,Binder
1,binds,B1
2,binds,B2
3,binds,B3

# — patent US20250049852A1
